Test results as given in PubChem BioAssay AID1671190 (National Center for Advancing Translational Sciences (NCATS), 2021).
Values joined by “and” are separate entries in the source; they are usually repeats but may differ in a detail not shown here. Identical values can stand only once. In all, about 580,000 compounds went through this assay and about 6,100 (1.1%) were called active. The shares of active, inactive and inconclusive entries below differ from those in the screen. Calls follow the shape of the dose curve; as a rule, active = well fitted inhibition curve with a large enough effect; inconclusive = small, poorly fitted or top-dose-only effect, or another doubt; inactive = no such curve, though single readings can be large or run the other way. Potencies beside an inconclusive call are fits to weak or partial responses and may not hold up.

Chains of the proteins cited; added tags and fusions are not shown. Lines headed by an entry give the natural chain unless they say otherwise; changes in a name come on top.
UniProt P18054: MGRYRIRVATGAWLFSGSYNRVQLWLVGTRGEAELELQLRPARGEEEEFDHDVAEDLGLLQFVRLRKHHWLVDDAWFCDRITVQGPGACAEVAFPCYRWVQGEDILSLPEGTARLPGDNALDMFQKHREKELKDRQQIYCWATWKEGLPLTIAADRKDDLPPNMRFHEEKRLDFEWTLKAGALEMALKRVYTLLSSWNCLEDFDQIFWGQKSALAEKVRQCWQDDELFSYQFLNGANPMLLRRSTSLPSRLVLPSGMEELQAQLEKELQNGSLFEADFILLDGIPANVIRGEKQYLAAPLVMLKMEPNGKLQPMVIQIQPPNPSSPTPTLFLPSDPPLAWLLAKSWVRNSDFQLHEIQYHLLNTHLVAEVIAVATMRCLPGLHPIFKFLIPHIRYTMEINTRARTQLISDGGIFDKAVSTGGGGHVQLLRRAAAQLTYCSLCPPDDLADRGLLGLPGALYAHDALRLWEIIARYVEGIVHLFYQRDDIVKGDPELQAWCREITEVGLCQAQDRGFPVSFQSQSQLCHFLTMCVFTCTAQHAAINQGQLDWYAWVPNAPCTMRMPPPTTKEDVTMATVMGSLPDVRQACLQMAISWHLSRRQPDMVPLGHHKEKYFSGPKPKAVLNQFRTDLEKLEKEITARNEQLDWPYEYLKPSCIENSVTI

The compounds below were run against Polyunsaturated fatty acid lipoxygenase ALOX12 (Homo sapiens) (UniProt P18054) (assay: Primary qHTS assay for inhibitors of human arachidonate 12S-lipoxygenase (ALOX12): Round 2). Conditions: purified 12hLO, xylenol orange hydroperoxide absorbance; series mostly up to 108 µM.
In short: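 Purified human 12hLO at 150 nM in 25 mM Hepes, 0.01% Triton X-100, pH 7.0, preincubated 15 min at room temperature with compound. Reaction started with 40 uM arachidonic acid, 30 min at room temperature. Hydroperoxide measured by Fe-xylenol orange, 573/405 nm absorbance ratio.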
Potency is read from the fitted curve at half-maximal effect.

With `Cc1nn(C)c(C)c1NC(=O)CCl` as the compound, how does the Potency read?
Its Potency is active: 14.1 µM.

Which Potency does the source give for `COc1ccc(NC(=O)C(=O)c2c(C)[nH]c3ccccc23)cc1` here?
Its Potency is inconclusive: 4.47 µM [inhibitor, full curve, poor fit].

`O=C(Cc1ccc(F)cc1)N1CCC(c2nc3c(nnn3Cc3ccc(Cl)cc3)c(=O)[nH]2)CC1` was tested. Which Potency did it give?
The Potency was inconclusive: 112 µM [inhibitor, single point].

Which Potency does the source give for `Cc1cc(C)c(OCCN2CCOCC2)c(Cl)c1` here?
Its Potency is inconclusive: 3.16 µM [inhibitor, full curve, poor fit].

How did the Potency turn out when `COc1ccc(-n2nnnc2SCc2cc(Cl)c3c(c2)OCCCO3)cc1` was run?
Its Potency is “inactive”.

With `CN(C(=O)CSc1cn(CC(=O)N2CCCCC2)c2ccccc12)c1ccccc1` as the compound, how does the Potency read?
The Potency was “inactive”.

Which Potency does the source give for `O=C(/C=C/c1ccco1)Nc1ccc2nn(-c3ccccc3)nc2c1` here?
The Potency was inconclusive: 44.7 µM [inhibitor, partial curve, poor fit].

Which Potency does the source give for `COc1cc(/C=N/Nc2ccc(Cl)cc2)ccc1OC(=O)c1cccs1` here?
Its Potency is inconclusive: 39.8 µM [inhibitor, partial curve].

Which Potency does the source give for `CC[C@]12c3[nH]c4cc(-c5ccco5)ccc4c3CCN1C(=O)[C@@H](CC(=O)NCCCOC)C[C@@H]2C(=O)N1CCN(C(=O)c2ccco2)CC1` here?
The Potency was inconclusive: 31.6 µM [inhibitor, partial curve, poor fit].

How did the Potency turn out when `COc1ccc(-c2cc(NC(C)=O)c3ncc(-c4ccc(F)cc4)n3c2)cc1OC` was run?
The Potency was inconclusive: 50.1 µM [inhibitor, partial curve, poor fit].

How did the Potency turn out when `COc1cc(Cl)c(C)cc1NC(=O)CCOc1cc(C)ccc1C` was run?
Its Potency is inconclusive: 5.01 µM [inhibitor, single point].

Which Potency does the source give for `CO/N=C/NC(=O)NOCc1ncc(C(F)(F)F)cc1Cl` here?
Its Potency is “inactive”.

For `O=C(CCN1CCN(c2ccc([N+](=O)[O-])cc2)CC1)c1ccc(Cl)cc1`, which Potency is on record?
Its Potency is “inactive”.

With `Cc1cc(/C=C2\C(=N)N3N=C(S(C)(=O)=O)SC3=NC2=O)c(C)n1Cc1ccccc1` as the compound, how does the Potency read?
The Potency was inconclusive: 50.1 µM [inhibitor, partial curve, poor fit].

Which Potency does the source give for `Cc1cccc(-c2n[nH]c(=S)n2/N=C/C=C/c2ccco2)c1` here?
Its Potency is active: 25.1 µM.

With `COc1ccc(C(NC(=O)CC(C)C)c2c(O)ccc3ccccc23)cc1` (stereo not given) as the compound, how does the Potency read?
The Potency was inconclusive: 35.5 µM [inhibitor, partial curve].

`CC1=C(C(=O)Nc2ccc(Cl)cc2)C(C(C)C)n2nc(SCc3cccc(C)c3)nc2N1` (stereo not given) was tested. Which Potency did it give?
The Potency was inconclusive: 141 µM [inhibitor, partial curve, poor fit].

Which Potency does the source give for `Cn1c(=O)c2c(SCC(=O)NCc3ccco3)nc(-c3ccccc3Cl)nc2n(C)c1=O` here?
Its Potency is inconclusive: 44.7 µM [inhibitor, partial curve, poor fit].

`C=CCNc1nc(-c2ccc3c(c2)CC(C)N3S(C)(=O)=O)cs1` (stereo not given) was tested. Which Potency did it give?
Its Potency is inconclusive: 0.631 µM [inhibitor, full curve, poor fit].

With `Cc1ccc(NC(=O)CSc2nc3c(c(=O)[nH]2)CN(Cc2ccc4c(c2)OCO4)CC3)cc1C` as the compound, how does the Potency read?
Its Potency is inconclusive: 50.1 µM [inhibitor, partial curve, poor fit] and inconclusive: 1.41 µM [inhibitor, full curve, poor fit].

`O=C(NCCO)c1cc2c([nH]c3ccccc32)c(-c2ccccc2)n1` was tested. Which Potency did it give?
Its Potency is inconclusive: 39.8 µM [inhibitor, partial curve, poor fit].

For `O=C(c1cc(-c2cccc(C(F)(F)F)c2)c2nncn2n1)N1CCOCC1`, which Potency is on record?
The Potency was inconclusive: 79.4 µM [inhibitor, partial curve, poor fit].

For `Cc1ccc(OCC(=O)Nc2ccc3c(c2)nc(CCN2CCOCC2)n3C)cc1`, which Potency is on record?
Its Potency is inconclusive: 2.82 µM [inhibitor, full curve, poor fit].

For `COCC(=O)NC(c1ccccc1)c1ccccc1`, which Potency is on record?
Its Potency is “inactive”.

With `CC(C)c1ccc(CNCCSc2nnnn2C)cc1` as the compound, how does the Potency read?
The Potency was “inactive”.

How did the Potency turn out when `Cc1coc(C)c1C(=O)CC1(O)C(=O)N(CCc2ccccc2)c2ccccc21` (stereo not given) was run?
The Potency was active: 39.8 µM.

How did the Potency turn out when `O=C(CNC(=O)C12CC3CC(CC(C3)C1)C2)N/N=C\c1ccco1` was run?
Its Potency is inconclusive: 7.08 µM [inhibitor, full curve, poor fit].

For `COc1ccc(/C=C2\NC(=S)N(CC3CCCO3)C2=O)c(OC)c1C` (stereo not given), which Potency is on record?
The Potency was inconclusive: 44.7 µM [inhibitor, partial curve, poor fit].

`N#C/C(=C\c1ccc(-c2cccc([N+](=O)[O-])c2)o1)C(=O)NCCN1CCOCC1` was tested. Which Potency did it give?
Its Potency is inconclusive: 50.1 µM [inhibitor, partial curve, poor fit].

How did the Potency turn out when `O=C(O)/C(=C\c1cn(-c2ccccc2)nc1-c1ccc(Cl)cc1)NC(=O)c1ccccc1` was run?
The Potency was “inactive”.

With `CCOc1ccc(OCC(=O)OCC(=O)Nc2ccccc2C#N)cc1` as the compound, how does the Potency read?
Its Potency is inconclusive: 79.4 µM [inhibitor, partial curve, poor fit].

`CCOC(=O)c1ccccc1Nc1cn(C(C)=O)c2ccccc12` was tested. Which Potency did it give?
Its Potency is “inactive”.

For `Nc1sc(-c2ccccc2)c(Cc2ccccc2)c1C(=O)O`, which Potency is on record?
The Potency was inconclusive: 0.282 µM [inhibitor, full curve, poor fit].

How did the Potency turn out when `CC(C)NC(=O)c1nc(-c2ccsc2)c2cnccn12` was run?
The Potency was inconclusive: 31.6 µM [inhibitor, full curve].

For `Cc1nnc(NC(=O)c2nc(S(=O)(=O)Cc3ccccc3)ncc2Cl)s1`, which Potency is on record?
The Potency was inconclusive: 2.51 µM [inhibitor, full curve, poor fit].

For `COc1cc(Cl)c(C)cc1NC(=O)C(C)N1CCN(S(=O)(=O)c2ccccc2C#N)CC1` (stereo not given), which Potency is on record?
The Potency was inconclusive: 0.708 µM [inhibitor, full curve, poor fit].

How did the Potency turn out when `CC(NC(=O)c1nccnc1N)c1cccs1` (stereo not given) was run?
The Potency was inconclusive: 28.2 µM [inhibitor, single point].

`COC(=O)c1cc(NC(=O)c2cc(-c3ccc(Cl)cc3)oc2C(F)(F)F)ccc1N1CCOCC1` was tested. Which Potency did it give?
The Potency was inconclusive: 112 µM [inhibitor, single point].

How did the Potency turn out when `O=C(O)[C@@H]1CSCN1` was run?
Its Potency is inconclusive: 6.42 µM [inhibitor, partial curve, poor fit].

`Cn1sc2ccccc2c1=O` was tested. Which Potency did it give?
Its Potency is “inactive”.
